Results are given in words; binding and its absence hold for the method and conditions named. In cells and extracts the contact can be indirect. Some results given as binding are weak or reduced against the parent protein; the word gives no strength.
T1: TRAF6 (endogenous, MEFs) (mouse (endogenous in MEFs)) (UniProt P70196)
T1 sequence: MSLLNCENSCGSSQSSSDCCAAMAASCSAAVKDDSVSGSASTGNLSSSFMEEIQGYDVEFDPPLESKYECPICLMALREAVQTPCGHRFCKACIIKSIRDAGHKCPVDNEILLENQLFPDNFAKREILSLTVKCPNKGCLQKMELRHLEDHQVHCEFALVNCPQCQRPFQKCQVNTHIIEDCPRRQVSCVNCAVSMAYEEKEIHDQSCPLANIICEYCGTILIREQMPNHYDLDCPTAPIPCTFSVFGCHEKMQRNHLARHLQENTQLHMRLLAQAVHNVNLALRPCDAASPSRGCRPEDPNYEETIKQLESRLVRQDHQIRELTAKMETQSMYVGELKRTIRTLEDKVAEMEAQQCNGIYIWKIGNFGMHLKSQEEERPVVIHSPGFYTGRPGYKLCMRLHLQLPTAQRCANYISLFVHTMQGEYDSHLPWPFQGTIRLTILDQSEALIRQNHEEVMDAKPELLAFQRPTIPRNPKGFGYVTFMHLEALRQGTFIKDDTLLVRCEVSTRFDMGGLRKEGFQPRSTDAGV

T2: TRAF6 wild type (expressed in HEK293T cells) (UniProt P70196)
T2 sequence: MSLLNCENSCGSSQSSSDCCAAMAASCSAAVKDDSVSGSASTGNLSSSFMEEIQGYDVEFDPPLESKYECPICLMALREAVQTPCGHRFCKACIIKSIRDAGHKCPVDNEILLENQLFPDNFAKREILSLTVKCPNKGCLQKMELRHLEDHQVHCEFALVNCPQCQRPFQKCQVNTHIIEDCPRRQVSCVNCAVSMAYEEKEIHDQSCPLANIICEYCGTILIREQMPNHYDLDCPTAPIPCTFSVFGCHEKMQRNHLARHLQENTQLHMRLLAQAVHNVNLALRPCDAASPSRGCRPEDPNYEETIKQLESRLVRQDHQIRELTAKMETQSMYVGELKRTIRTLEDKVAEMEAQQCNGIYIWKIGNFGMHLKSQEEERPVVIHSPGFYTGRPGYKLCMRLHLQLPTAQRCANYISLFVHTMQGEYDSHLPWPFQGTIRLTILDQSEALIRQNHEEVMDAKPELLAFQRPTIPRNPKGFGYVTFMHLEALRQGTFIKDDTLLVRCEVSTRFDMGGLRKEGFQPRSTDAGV

T3: TRAF2 (UniProt P39429)
T3 sequence: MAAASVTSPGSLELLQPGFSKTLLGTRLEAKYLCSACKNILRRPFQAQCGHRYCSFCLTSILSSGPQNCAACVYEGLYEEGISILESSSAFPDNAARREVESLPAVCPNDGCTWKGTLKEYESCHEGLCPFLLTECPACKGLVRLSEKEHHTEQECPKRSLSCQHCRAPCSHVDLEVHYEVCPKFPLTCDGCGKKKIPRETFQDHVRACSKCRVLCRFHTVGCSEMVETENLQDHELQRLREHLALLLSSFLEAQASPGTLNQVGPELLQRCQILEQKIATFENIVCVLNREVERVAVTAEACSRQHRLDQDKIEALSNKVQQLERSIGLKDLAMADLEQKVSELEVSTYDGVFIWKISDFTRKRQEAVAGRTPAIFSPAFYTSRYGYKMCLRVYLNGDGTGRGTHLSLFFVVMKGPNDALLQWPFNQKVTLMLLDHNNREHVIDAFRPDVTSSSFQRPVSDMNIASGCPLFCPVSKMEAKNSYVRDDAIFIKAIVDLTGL


Columns and labels:
[1] = target: T1, TRAF6 (endogenous, MEFs) (mouse (endogenous in MEFs)); assay: co-IP; endogenous proteins; CRTC2 recovered from immunoprecipitates of TRAF6 from MEFs, immunoblot; basal and after IL-1β (10 μg l^−1); TRAF6^−/− and CRTC2^−/− MEFs as controls
[2] = target: T2, TRAF6 wild type (expressed in HEK293T cells); assay: co-IP; HEK293T cells expressing CRTC2 (wild type or E2A) and TRAF6; immunoblots (Figure 2h)
TRAF2 = target: T3, TRAF2; assay: co-IP; Supplementary Figure S6a; legend not shown, cells and direction not told; immunoprecipitation is the only binding method in the methods
[3] = target: T2, TRAF6 wild type (expressed in HEK293T cells); assay: co-IP; Supplementary Figure S5b, d, e; legend not shown, cells and direction not told; immunoprecipitation is the only binding method in the methods

Row | binding [1] | binding [2] | binding (TRAF2) | binding [3] | Binder
1 | binds |  |  |  | CRTC2 (endogenous, MEFs) (protein, UniProt Q3U182 1-692) MATSGANGPGSATASASNPRKFSEKIALQKQRQAEETAAFEEVMMDIGSTRLQAQKLRLAYTRSSHYGGSLPNVNQIGCGLAEFQSPLHSPLDSSRSTRHHGLVERVQRDARRMVSPLRRYPRHIDSSPYSPAYLSPPPESGWRRMMPWGNLPAEKGQLFRLPSALNRTSSDSALHTSVMNPNPQDTYPGPTPPSVLPSRRGGGFLDGEMDAKVPAIEENVVDDKHLLKPWDAKKLSSSSSRPRSCEVPGINIFPSPDQPANVPVLPPAMNTGGSLPDLTNLHFPPPLPTPLDPEETVYPSLSGGNSTTNLTHTMTHLGISGGLGLGPSYDVPGLHSPLSHPSLQSSLSNPNLQASLSSPQPQLQGSHSHPSLPASSLAHHALPTTSLGHPSLSAPALSSSSSSSSTSSPVLSAPPYPASTPGASPRHRRVPLSPLSLPAGPADARRSQQQLPKQFSPTMSPTLSSITQGVPLDTSKLPTDQRLPPYPYSPPSLVIPTHPPTPKSLQQLPSQACLVQPSGGQPPGRQPHYGALYPPGSSGHGQQPYHRPINDFSLGNLEQFNMESPSTSLVLDPPAFSEGPGFLGSEGSMSGPQDPHVLNHQNLTHCSRHGSGPNIILTGDSSPGFSKEIAAALAGVPGFEVSASGLELGLGLEDELRMEPLGLEGLTMLSDPCALLPDPAVEDSFRSDRLQ
2 |  | binds | binds | binds | CRTC2 wild type (expressed in HEK293T cells) (protein, UniProt Q3U182 1-692) MATSGANGPGSATASASNPRKFSEKIALQKQRQAEETAAFEEVMMDIGSTRLQAQKLRLAYTRSSHYGGSLPNVNQIGCGLAEFQSPLHSPLDSSRSTRHHGLVERVQRDARRMVSPLRRYPRHIDSSPYSPAYLSPPPESGWRRMMPWGNLPAEKGQLFRLPSALNRTSSDSALHTSVMNPNPQDTYPGPTPPSVLPSRRGGGFLDGEMDAKVPAIEENVVDDKHLLKPWDAKKLSSSSSRPRSCEVPGINIFPSPDQPANVPVLPPAMNTGGSLPDLTNLHFPPPLPTPLDPEETVYPSLSGGNSTTNLTHTMTHLGISGGLGLGPSYDVPGLHSPLSHPSLQSSLSNPNLQASLSSPQPQLQGSHSHPSLPASSLAHHALPTTSLGHPSLSAPALSSSSSSSSTSSPVLSAPPYPASTPGASPRHRRVPLSPLSLPAGPADARRSQQQLPKQFSPTMSPTLSSITQGVPLDTSKLPTDQRLPPYPYSPPSLVIPTHPPTPKSLQQLPSQACLVQPSGGQPPGRQPHYGALYPPGSSGHGQQPYHRPINDFSLGNLEQFNMESPSTSLVLDPPAFSEGPGFLGSEGSMSGPQDPHVLNHQNLTHCSRHGSGPNIILTGDSSPGFSKEIAAALAGVPGFEVSASGLELGLGLEDELRMEPLGLEGLTMLSDPCALLPDPAVEDSFRSDRLQ
3 |  |  |  | binds | CRTC1 wild type (protein, UniProt Q68ED7 1-630) MATSNNPRKFSEKIALHNQKQAEETAAFEEVMKDLSLTRAARLQLQKSQYLQLGPSRGQYYGGSLPNVNQIGSSSVDLAFQTPFQSSGLDTSRTTRHHGLVDRVYRERGRLGSPHRRPLSVDKHGRQADSCPYGTVYLSPPADTSWRRTNSDSALHQSTMTPSQAESFTGGSQDAHQKRVLLLTVPGMEDTGAETDKTLSKQSWDSKKAGSRPKSCEVPGINIFPSADQENTTALIPATHNTGGSLPDLTNIHFPSPLPTPLDPEEPPFPALTSSSSTGSLAHLGVGGAGQGMNTPSSSPQHRPAVVSPLSLSTEARRQQAQQVSPTLSPLSPITQAVAMDALSLEQQLPYAFFTQTGSQQPPPQPQPPPPPPPVSQQQPPPPQVSVGLPQGGPLLPSASLTRGPQLPPLSVTVPSTLPQSPTENPGQSPMGIDATSAPALQYRTSAGSPATQSPTSPVSNQGFSPGSSPQHTSTLGSVFGDAYYEQQMTARQANALSRQLEQFNMMENAISSSSLYNPGSTLNYSQAAMMGLSGSHGGLQDPQQLGYTGHGGIPNIILTVTGESPPSLSKELSSTLAGVSDVSFDSDHQFPLDELKIDPLTLDGLHMLNDPDMVLADPATEDTFRMDRL

From publication PMC5153457
